Laboratory results taken from US4965343 (dated 1990).

Experiments:
[1] = general procedure: Boc solid-phase peptide synthesis; Boc-N-methyl-Phe-PAM resin; BOP; conditions: whole synthesis, scale 100 mg sulfated peptide resin (0.0268 mmole)
[2] = general procedure: Boc solid-phase peptide synthesis; Boc-amino acid-OCH2-PAM resin (phenylacetamidomethyl polystyrene); BOP; conditions: whole synthesis
[3] = overall, scale of the general procedure 100 mg peptide-resin (0.0268 mmole of peptide)

“Ac-Tyr(SO3 H)-Met-Gly-Trp-Met-Thr(SO3 H)-N-methyl-Phe-NH2” gave a crude mass [1] of 19.3 mg, an isolated mass [2] of 2.8 mg and a crude yield [2, 3] of 57%. The isolated yield [2, 3] was 20%.
